Assay results from PubChem BioAssay AID2685 (National Center for Advancing Translational Sciences (NCATS), 2010).
The list shows a part of the results. Shown are side measurements of this screen, not its main read-out; they come without a call. The list favours compounds with an active or inconclusive main result. Words in brackets tell the shape of the fitted curve; partial curves, single points and poor fits give uncertain potencies.

Experiment: qHTS Assay for Lipid Storage Modulators in Drosophila S3 Cells;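 for cell number change: cells counted by Cell Tracker Red CMTPX staining in the red channel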
Settings: BODIPY lipid droplet fluorescence, 18-24 h; for cell number change: measured here: cell count max response, cells fed with added oleic acid
Summary of the method: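 Drosophila S3 cells loaded with oleic acid (400 uM, as added) and compounds at several concentrations; lipid droplets imaged by 488-nm laser-scanning cytometry, 500–530 nm intensity and object ratio to cell channel. Percent activity normalized to 20 uM Triacsin C.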

[1] = measured here: lipid fluorescence (Fed channel) AC50, cells fed with added oleic acid
[2] = measured here: cell number channel AC50, cells fed with added oleic acid

Compound | cell number change [%] | AC50 [1] | AC50 [2]
O=C(Nc1ccc(OC(F)F)c(Cl)c1)c1cccc(OC(F)F)c1 | -7.34 | 6.51 µM [rising, single point] | –
Cc1nc2ncnn2c(Nc2ccc3c(c2)OCO3)c1Cc1ccccc1 | -7.66 | – | –
CC(Oc1cccc(F)c1)c1ccnc2nc(/N=C/N(C)C)nn12 (configuration not stated) | -36.3 | 0.92 µM [falling, partial curve] | 0.058 µM [falling, full curve, poor fit]
CCOc1ccc(CNc2ccc3c(c2)ncn3C)cc1 | -16.9 | – | –
CC1CCN(C(=O)c2[nH]cnc2C(=O)Nc2nccs2)CC1 | -28.6 | 0.731 µM [falling, full curve, poor fit] | 0.461 µM [falling, full curve, poor fit]
N#Cc1ccsc1NC(=O)CN1CCN(S(=O)(=O)c2ccc3ccccc3c2)CC1 | – | – | 4.11 µM [rising, single point]
CCOc1cc(/C=N/NC(=O)CN(CCc2ccccc2)S(=O)(=O)c2ccc(NC(C)=O)cc2)ccc1O | -1.13 | – | –
COc1ccc(-c2oc3ncnc(NCCCN(C)C)c3c2-c2ccc(OC)cc2)cc1 | -38.3 | 32.6 µM [falling, single point] | 29.1 µM [falling, single point]
O=C(c1ccco1)N1CCN(C(=O)c2cc3sccc3n2Cc2ccccc2)CC1 | -1.12 | – | –
CCN1C(=O)c2cccc3c(NC(=O)c4cccc(N5C(=O)CCC5=O)c4)ccc1c23 | -77.3 | – | 29.1 µM [falling, single point]
COCCN(CC(=O)NC1CCCCC1)C(=O)CSc1nc2ccccc2o1 | 141 | – | 29.1 µM [rising, single point]
CCc1cccc(CC)c1-n1c(SCC(=O)N2CCc3ccccc3C2)nnc1-c1cccnc1 | – | 18.4 µM [falling, partial curve] | –
COc1ccc([N+](=O)[O-])cc1NC(=O)c1cn(-c2ccc(C)c(C)c2)c(=O)c2ccccc12 | 1.96 | – | –
CC1CCCCN1CC(=O)Nc1ccc2c(c1)OC(F)(F)O2 (configuration not stated) | -5.74 | – | 0.58 µM [falling, single point]
Cc1ccc(N=C2NC(=O)C(CC(=O)NCc3ccccc3)S2)cc1C (configuration not stated) | – | 6.51 µM [rising, single point] | –
CCOC(=O)CSc1nc(N)c(C#N)c(-c2ccc(OCC)cc2)c1C#N | 5.44 | – | –

Compound | cell number change [%] | AC50 [1] | AC50 [2]
CN(Cc1ccc(Cl)c(Cl)c1)C(=O)c1ccccc1SCC(=O)N1CCCC1 | -50 | 0.411 µM [falling, single point] | 29.1 µM [falling, single point]
CCCNC(=O)C(Cc1ccc(I)cc1)NC(=O)C1CC1 (configuration not stated) | -19.4 | – | 1.16 µM [rising, single point]
CCCC(=O)Nc1nnc(-c2ccc(Cl)s2)o1 | -14.7 | 0.00517 µM [rising, full curve, poor fit] | –
O=C(NCCCN1CCOCC1)c1cccc(S(=O)(=O)NCc2ccccc2)c1 | – | – | 0.146 µM [rising, full curve]
COC(/C=C/Nc1ccc(Br)cc1)=C(C#N)C#N | -12.4 | 0.116 µM [falling, full curve, poor fit] | 0.731 µM [falling, partial curve]
CNC(=S)NCCC(c1ccccc1)c1ccccc1 | -83.3 | – | 29.1 µM [falling, single point]
CCC(CC)c1nnc(NC(=O)c2ccc([N+](=O)[O-])cc2)s1 | -33.3 | 1.64 µM [falling, full curve] | 5.8 µM [falling, full curve]
Cc1cc(NC(=O)COC(=O)C2CC(=O)N(c3ccc(Br)cc3)C2)no1 (configuration not stated) | 0.427 | 5.17 µM [falling, partial curve, poor fit] | –
O=C(O)CC(c1cccc2ccccc12)N1Cc2ccccc2C1=O (configuration not stated) | -9.04 | 6.51 µM [falling, single point] | –
CCOC(=O)CSc1ncc(OC)c(Sc2ccc(OC)cc2)n1 | 20.2 | 29.1 µM [rising, single point] | –
CC1=Nc2ccc3ccccc3c2C1(C)C | – | – | 0.103 µM [rising, full curve, poor fit]
CCN(CC)CCNC(=O)c1ccc(NC(=O)Nc2cccc3ccccc23)cc1 | 5.88 | 29.1 µM [rising, partial curve] | 0.146 µM [rising, full curve, poor fit]
CCN(CC)c1ccc(NS(=O)(=O)c2ccc(-c3ccc(=O)[nH]n3)o2)c(C)c1 | -10 | 29.1 µM [falling, single point] | –
O=C(O)C1CCN(C(=O)c2ccccc2Cl)CC1 | – | 8.2 µM [falling, single point] | –
COc1ccccc1N1CCN(C(c2ccc(N(C)C)cc2)c2nnnn2CCc2ccccc2)CC1 (configuration not stated) | -28.1 | 25.9 µM [falling, partial curve, poor fit] | –

Some values from above:
AC50 [2] with CC(Oc1cccc(F)c1)c1ccnc2nc(/N=C/N(C)C)nn12 (configuration not stated) is entered as 0.058 µM [falling, full curve, poor fit]
cell number change [%] with CNC(=S)NCCC(c1ccccc1)c1ccccc1 is entered as -83.3
